The test in a line: qHTS Assay to Find Inhibitors of Chronic Active B-Cell Receptor Signaling. The note with it: ABC-DLBCL IkBa-CBG/CBR reporter, luminescence ratio (green luciferase fused to IkBa over red control in TMD8 lymphoma cells), 4 h. The method, boiled down: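 Compounds up to 46 uM were incubated four hours with TMD8 cells whose green CBG68 luciferase is fused to IkappaBalpha; red CBR luminescence normalised the signal, and concentration-effect curves were fitted to fusion, red and ratio data.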
In general terms: In qHTS, concentration-response curves come from the screen itself.

Setting [1] is: measured here: CBR red luminescence, cell number.
[2] abbreviates: measured here: IkBa-CBG green luminescence.

The list shows a part of the results. Shown are side measurements of this screen, not its main read-out; they come without a call. Most of these compounds were active or inconclusive in the main read-out, so they are no random draw. Potencies come from curve fits of mixed quality, noted in brackets.

Usually AC50 stands for the concentration giving half of the maximal activity seen.

Regarding `CCOc1ccc(/C=C2/Sc3ccc(C(=O)N4CCN(C(=O)c5ccco5)CC4)cc3N(C)C2=O)cc1OC`, under setting [1], the AC50 was 35.5 µM [falling, single point].

As for `COCCn1c(=S)[nH]c2cc(C(=O)N3CCCC(C)C3)ccc2c1=O` (stereo unspecified), the AC50 under setting [1] was 0.316 µM [falling, full curve, poor fit]. On the same count and under the same terms, with `O=C(CN1C(=O)COc2ccccc21)N(Cc1cccnc1)Cc1ccccc1F` the figure was 2.31 µM [falling, partial curve, poor fit]; with `O=C(Nc1ccc(N2CCCCC2)cc1)c1cncc(Br)c1`, 6.31 µM [falling, single point]; with `C(=N\N=C\c1cccs1)/c1cccs1`, 0.708 µM [rising, full curve]. The same measure, in the same setting: with `COc1cc(S(=O)(=O)Nc2cc(C)cc(C)c2)ccc1F` the figure was 13 µM [falling, partial curve].

For the compound `Cc1cccc(NC(=O)c2cc3n(n2)C(C(F)(F)F)CC(C2CC2)N3)c1C` (stereo unspecified), the AC50 under setting [1] was 2.91 µM [rising, single point]. With `CCCNc1nc(Nc2ccc(C)c(Cl)c2)c2cnn(C)c2n1`, under setting [1], the AC50 is 22.4 µM [falling, single point]. Same read-out and setting: with `CCOC(=O)c1ccccc1NC1c2ccccc2C(=O)N1c1ccc(C)cn1` (stereo unspecified) the figure was 25.9 µM [rising, single point]; with `CC(=O)c1ccc(OCC(O)CN2CCN(S(=O)(=O)c3c(C)cc(C)cc3C)CC2)cc1` (stereo unspecified), 15.8 µM [rising, partial curve, poor fit]. With `COc1cccc(NC(=O)c2cnn(-c3ccccc3)c2-n2cccc2)c1`, the AC50 was 35.5 µM [falling, single point] under setting [1] and 3.98 µM [rising, full curve, poor fit] under setting [2]. In the case of `Cc1ccc(-n2[nH]c(C)c(/C=N/NC(=O)c3cccc([N+](=O)[O-])c3)c2=O)cc1C`, the half-maximal activity concentration (AC50) under setting [1] is 2.59 µM [falling, single point]. With `COc1ccccc1C(=O)NNC(=O)c1cccc([N+](=O)[O-])c1`, under setting [1], the AC50 was 35.5 µM [falling, single point]. Consider `COc1ccccc1NC(=O)CSc1ccc2nnc(-c3cccnc3)n2n1`, for which the concentration at half-maximal activity (AC50) under setting [1] was 11.6 µM [falling, partial curve]. For `Cc1cc(OCC(=O)Nc2ccc(Br)cc2)cc2c1C(=O)CC(C)(C)O2`, the AC50 under setting [1] is 20 µM [falling, single point]. Still for that read-out and setting: with `COC(=O)c1ccc(NC(=O)c2sc3nc(-c4ccccc4)cn3c2C)cc1` the figure was 1.78 µM [falling, partial curve, poor fit]. With `O=C(Cc1c(O)c2ccccc2[nH]c1=O)NCc1cccc(F)c1`, the AC50 under setting [1] is 2.24 µM [rising, partial curve, poor fit].

As for `Cc1cc(C(=O)CSc2nc(N)cc(=O)[nH]2)c(C)n1CCc1ccc(F)cc1`, the AC50 under setting [1] was 28.2 µM [falling, partial curve, poor fit]. For `COc1ccc(CCNC(=O)c2ccc(CS(=O)(=O)Cc3cccc(C)c3)o2)cc1OC`, the AC50 under setting [1] was 7.94 µM [rising, partial curve, poor fit]. Same read-out and setting: with `O=C(NC1CCSc2ccccc21)c1c(F)cccc1Cl` (stereo unspecified) the figure was 5.62 µM [falling, single point]; with `CN1CCN(c2nc(-c3ccccc3)nc(-c3ccccc3)c2C#N)CC1`, 25.1 µM [rising, single point].

Turning to `Cc1nnc(OC(C)C)c2nn(-c3ccccc3F)c(C)c12`, the concentration at half-maximal activity (AC50) under setting [1] was 2.91 µM [rising, full curve, poor fit]. Still for that read-out and setting: the same measure for `CCCCCCSc1ccc([C@H]2N[C@@](Cc3ccccc3)(C(=O)OC)[C@H]3C(=O)N(C)C(=O)[C@@H]23)cc1OC`: 23.1 µM [rising, partial curve, poor fit]; for `COc1cc(C=C(c2nc3ccccc3s2)c2nc3ccccc3s2)ccc1O`: 18.4 µM [falling, single point].

For the compound `O=C(N/N=C/c1cc(Br)cs1)c1ccccc1[N+](=O)[O-]`, the AC50 under setting [1] was 5.17 µM [falling, partial curve]. Same read-out and setting: with `CCN(C(=O)CCN1C(=O)/C(=C/c2ccccc2)SC1=S)C1CCS(=O)(=O)C1` (stereo unspecified) the figure was 17.8 µM [falling, single point]; with `COc1ccc(C2NCCc3c2[nH]c2ccccc32)cc1CN1CCc2cc(OC)c(OC)cc2C1C` (stereo unspecified), 17.8 µM [falling, single point]. For the compound `CC(=O)c1cc2c(cc1NC(=O)CSc1nc3ccc(C)cc3[nH]1)OCO2`, the AC50 under setting [1] was 20.6 µM [falling, partial curve]. For `COc1ccc(OC)c(NC(=O)Cn2c(C)nc3ccccc3c2=O)c1`, under setting [1], the half-maximal activity concentration (AC50) is 11.2 µM [falling, partial curve]. Still for that read-out and setting: the same measure for `CCC(C)Nc1nc(-c2ccccn2)nc2ccccc12` (stereo unspecified): 35.5 µM [falling, single point]; for `CCOC(=O)c1c(NC(=S)NC(=O)c2ccc(Cn3cc(Cl)cn3)o2)sc2c1CCCCC2`: 3.98 µM [falling, single point]; for `CCn1c(O)c(/C=N/NC(=O)c2ccncc2)c(=O)n(CC)c1=S`: 10.3 µM [falling, partial curve, poor fit]. Still for that read-out and setting: with `O=[N+]([O-])c1cc(C(F)(F)F)ccc1NCCNC(=S)Nc1ccc(Cl)cc1` the figure was 20 µM [falling, single point].

In the case of `COc1ccc(C2=NN(C(=O)c3cccs3)C(c3ccc(OC)cc3)C2)cc1` (stereo unspecified), the concentration at half-maximal activity (AC50) under setting [1] was 18.4 µM [falling, partial curve]. `O=S(=O)(c1cc(F)ccc1F)N1CCN(c2ncnc3ccccc23)CC1`: the AC50 is 25.9 µM [falling, single point] under setting [1] and 25.9 µM [falling, single point] under setting [2]. As for `C=CCOC(=O)C1=C(C)NC(SCC(N)=O)=C(C#N)C1c1cccs1` (stereo unspecified), the half-maximal activity concentration (AC50) under setting [1] was 10.3 µM [falling, partial curve, poor fit]. Same read-out and setting: with `c1ccc2c(c1)ccc1nnc(SCc3ccc4c(c3)OCO4)n12` the figure was 18.4 µM [rising, single point]; with `C/C(=C\c1ccc(Br)cc1)C(=O)c1c(C)cc(C)[nH]c1=O`, 11.2 µM [falling, partial curve, poor fit]. Turning to `CC(C)Cn1c(N)c(C(=O)COC(=O)c2ccc(Br)cc2)c(=O)n(C)c1=O`, the AC50 under setting [1] is 0.517 µM [rising, full curve].

For `N#CC1=C(N)NC(SCC(=O)c2ccc(Cl)cc2)=C(C#N)C12CCCC2`, the AC50 under setting [1] was 29.1 µM [falling, single point]. With `CCS(=O)(=O)c1ccc(O)c(NC(=O)COc2ccc(Cl)cc2)c1`, the AC50 under setting [1] was 35.5 µM [falling, single point]. Still for that read-out and setting: with `CCc1ccc(NC(=O)N2CCc3ccccc3C2)cc1` the figure was 0.447 µM [rising, partial curve, poor fit]; with `CN(C)c1ccc(CC2C(=O)Nc3ccccc32)cc1` (stereo unspecified), 15.8 µM [falling, partial curve]; with `O=C(N[C@H]1/C=C\[C@@H](O)CCCC1)OCc1ccccc1`, 6.51 µM [rising, partial curve, poor fit]. The same measure, in the same setting: the same measure for `COc1cc(O)c(C(CCN2CCN(c3ccccc3)CC2)c2ccc(N(C)C)cc2)c(OC)c1` (stereo unspecified): 35.5 µM [falling, single point]. Turning to `CC1CCC(NC(=O)c2cc3ccccc3cc2O)CC1` (stereo unspecified), the concentration at half-maximal activity (AC50) under setting [1] was 29.1 µM [falling, single point]. Same read-out and setting: the same measure for `COC(=O)C1(C#N)C(c2ccccc2)C1(C(=O)OC)C(=O)OC` (stereo unspecified): 29.1 µM [rising, single point]; for `Cc1ccc(OCC(=O)Nc2ccc3c4c(cccc24)CC3)c(C)c1`: 3.26 µM [rising, single point]; for `CC(CN1CCN(c2ccccc2)CC1)c1ccccc1` (stereo unspecified): 7.94 µM [rising, partial curve, poor fit].

In the case of `Cc1sc2ncnc(N3CCC(C(=O)Nc4ccc(OC(F)F)c(Cl)c4)CC3)c2c1C`, the AC50 under setting [1] was 29.1 µM [falling, single point]. Still for that read-out and setting: the same measure for `Clc1ccc2oc(-c3cccnc3)nc2c1`: 2.82 µM [rising, full curve]; for `Cc1cc(N2C(=O)C(O)=C(C(=O)c3ccc(C)o3)C2c2cccs2)no1` (stereo unspecified): 1.03 µM [falling, full curve, poor fit]; for `Cc1cc(NC(=O)C2CC(c3cccc(Br)c3)=NO2)no1` (stereo unspecified): 1.3 µM [falling, full curve, poor fit]. `CC1CCCN(CC(O)COCc2ccccc2)C1` (stereo unspecified): the AC50 under setting [1] was 31.6 µM [falling, single point]. In the case of `O=C(CN1CCN(S(=O)(=O)c2ccc(Br)cc2)CC1)Nc1ccc(F)cc1`, the AC50 under setting [1] is 20.6 µM [falling, single point].

As for `c1ccc2sc(-c3ccc4c(c3)OCO4)nc2c1`, the AC50 under setting [1] was 15.8 µM [falling, single point]. As for `O=C1NC(SCCCF)=N/C1=C/c1ccc(-n2cncn2)cc1`, the AC50 under setting [1] was 35.5 µM [rising, single point].

With `COc1ccccc1C(=O)OCc1cc(=O)n2ccsc2n1`, the AC50 under setting [1] is 18.4 µM [falling, partial curve]. Turning to `Cc1cc(C(=O)N/N=C/c2cccn2C)n[nH]1`, the AC50 under setting [1] is 4.11 µM [falling, partial curve]. On the same count and under the same terms, with `O=C(NCC1CCCO1)c1cc(C(=O)c2ccc(Cl)cc2Cl)c[nH]1` (stereo unspecified) the figure was 35.5 µM [falling, single point]; with `CCOc1ccc2nc(NC(=O)c3cnccn3)sc2c1`, 5.01 µM [rising, full curve, poor fit]; with `COc1ccccc1NC(=O)CSc1nc2ncccc2[nH]1`, 15.8 µM [falling, partial curve, poor fit]. On to `CN(C)c1ccc(-c2ccc3oc(-c4ccsc4)cc(=O)c3c2)cn1`, for which the AC50 under setting [1] is 14.6 µM [rising, partial curve, poor fit].

As to `CCn1cc(CN2CCCC(C(=O)Nc3ccc(-c4nc5ccccc5[nH]4)cc3)C2)c(C)n1` (stereo unspecified), the AC50 under setting [1] was 8.91 µM [falling, partial curve, poor fit].

The values above are taken from PubChem BioAssay AID493014 (National Center for Advancing Translational Sciences (NCATS), 2011).
